Reference: PubChem BioAssay AID2685 (National Center for Advancing Translational Sciences (NCATS), 2010)
About 2,100 (0.66%) of roughly 320,000 compounds were called active. Inconclusive results, whose numbers are uncertain, are shown with a selection of clear calls. The call rests on the fitted dose curve; in most records, active means well fitted inhibition curve with a large enough effect in the signal ratio, with a control signal flat (not every such curve was filed as active); inconclusive means small, poorly fitted or top-dose-only effect, or effect the other way, or a change in a side signal; inactive means flat fitted curve, though single readings scatter; the % refers to the signal ratio. A potency beside an inconclusive call is a rough fit, not a confirmed value.

Test: qHTS Assay for Lipid Storage Modulators in Drosophila S3 Cells
Details: BODIPY lipid droplet fluorescence, 18-24 h, cells fed with added oleic acid; lipid storage change, negative = inhibition: at 46.1 µM (top of the series) unless noted
Method in brief: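 Drosophila S3 cells loaded with oleic acid (400 uM, as added) and compounds at several concentrations; lipid droplets imaged by 488-nm laser-scanning cytometry, 500–530 nm intensity and object ratio to cell channel. Percent activity normalized to 20 uM Triacsin C.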
On the % scale 0 is the no-effect control and ±100 the full control effect; potency means the concentration at half of the fitted maximal effect.

Compound	Potency	lipid storage change, negative = inhibition	outcome
Cn1c(-c2ccccc2)cc2onc(-c3ccccc3)c2c1=O	inconclusive: 11.6 µM [falling, partial curve]	–	–
COc1ccc(/C=N/NC(=O)c2cccnc2)cc1CN1CCN(c2ccc(F)cc2)CC1	–	inactive: -2.21%	–
COc1ccc(-c2cc(C(F)(F)F)n3nc(C(=O)NCc4ccco4)c(Cl)c3n2)cc1	–	inconclusive: 22.9%	–
CC1CCN(CC(=O)NC(=O)NCc2ccccc2)CC1	–	inconclusive: 9.94%	–
O=C(Nc1ccc(CN2CCOCC2)cc1)c1ccc(-c2cc(Cl)ccc2Cl)o1	inconclusive: 16.4 µM [activator, partial curve]	–	–
COc1ccccc1NC(=O)CSc1nnc(C)s1	–	inconclusive: -33.7%	–
COc1cc(/C=C(/C#N)C(=O)NC(C)c2ccccc2)cc(OC)c1O (stereo not drawn)	–	inconclusive: 55.7%	–
Fc1ccc(-c2nnc(NC3=NCCCCC3)o2)cc1	–	inconclusive: -0.961%	–
COc1cccc(CN(C)C(=O)c2ccc(NC(=O)CC3SC(N4CCCC4)=NC3=O)cc2)c1OC (stereo not drawn)	–	inconclusive: 16.9%	–
O=C(O)C1C(c2ccccc2)C(C(=O)OCCCO)C1c1ccccc1 (stereo not drawn)	–	inconclusive: -20.7%	–
Cc1cccn2c(=O)nc(SCC(=O)NCc3ccccc3)nc12	–	inactive: 14.2% [at 0.0737 µM]	–
Cc1cc(C)n(-c2cc(-c3ccccc3)nc(C)n2)n1	inconclusive: 8.2 µM [activator, partial curve]	–	–
CCOC(=O)CCCCC(=O)c1[nH]c(=O)[nH]c1CSc1nc(-c2ccccc2)c(C#N)c(=O)[nH]1	–	inconclusive: -7.1%	–
CC(C(=O)NCc1ccco1)n1cc(C(=O)c2ccco2)c2ccccc21 (stereo not drawn)	inconclusive: 20.6 µM [activator, single point]	–	–
CCNC(=S)N/N=C/c1cn(Cc2ccccc2F)c2ccccc12	–	inconclusive: -22.7%	–
S=c1[nH]nc(-c2ccccc2)n1/N=C/c1ccc(-c2ccccc2Cl)o1	inconclusive: 29.1 µM [falling, single point]	–	–
COC(=O)Cc1[nH]nc2c1C1(C(=O)N(Cc3ccc(Cl)cc3)c3ccccc31)C(C#N)=C(N)O2 (stereo not drawn)	–	inconclusive: 23.8%	–
CCc1ccc(NC(=O)[C@H](C)NC(=O)C2CCN(C(=O)[C@@H](N)CC(C)C)CC2)cc1	–	inconclusive: 24.8%	–
O=C(COC(=O)CCC(=O)c1ccccc1)Nc1nnc(-c2ccccc2)o1	inconclusive: 0.116 µM [falling, full curve, poor fit]	–	–
O=C(N/N=C/c1ccc(O)cc1O)C(=O)N/N=C/c1ccc(O)cc1O	–	inconclusive: -42.7%	–
CCn1c(Nc2ccccc2Cl)nc2ccccc21	inconclusive: 0.58 µM [activator, single point]	–	–
CN(Cc1ccccc1)C(=O)CCC1CCN(C(=O)CC2=CCCCC2)CC1	inconclusive: 6.51 µM [activator, partial curve, poor fit]	–	–
COc1cc(/C=C2\SC(c3ccc(C)cc3)=NC2=O)ccc1O	–	inconclusive: 35.6%	–
COc1ccccc1NC(=O)CSc1nnc(CNC(=O)c2ccccc2F)o1	–	inconclusive: 127%	–

Fetched one by one from above, 4 records:
Compound	Potency	lipid storage change, negative = inhibition	outcome
CCOC(=O)CCCCC(=O)c1[nH]c(=O)[nH]c1CSc1nc(-c2ccccc2)c(C#N)c(=O)[nH]1	–	inconclusive: -7.1%	–
S=c1[nH]nc(-c2ccccc2)n1/N=C/c1ccc(-c2ccccc2Cl)o1	inconclusive: 29.1 µM [falling, single point]	–	–
COc1ccccc1NC(=O)CSc1nnc(CNC(=O)c2ccccc2F)o1	–	inconclusive: 127%	–
COc1ccc(-c2cc(C(F)(F)F)n3nc(C(=O)NCc4ccco4)c(Cl)c3n2)cc1	–	inconclusive: 22.9%	–

(further entries)

Compound	Potency	lipid storage change, negative = inhibition	outcome
CN(C)c1ccc(C=NCCC2(c3ccccc3)CCOC(C)(C)C2)cc1 (stereo not drawn)	–	inactive: 3.28%	–
Cc1ccn(-c2cccc(-n3ccc(C)n3)n2)n1	–	inconclusive: 5.83%	–
CSc1cccc(CN2CCC(Oc3cccc(C(=O)N4CCCC4)c3)CC2)c1	inconclusive: 29.1 µM [activator, single point]	–	–
COc1ccc(/C=C/C(=O)Nc2nc(C)cc(C)n2)cc1OC	–	inconclusive: 24.4%	–
O=C(NNS(=O)(=O)c1ccc2ccccc2c1)NC1CCCCC1	–	inconclusive: 33.4% [activator]	–
COC(=O)Cc1ccc(NC(=O)c2ccc3c(c2)C(=O)N(CC2CCCO2)C3=O)cc1 (stereo not drawn)	inconclusive: 13 µM [cytotoxic, partial curve]	–	–
CCOc1ccc(S(=O)(=O)NCc2ccco2)cc1	inconclusive: 25.9 µM [falling, partial curve, poor fit]	–	–
Cc1ccc(C(=O)Nc2cccnc2)cc1S(=O)(=O)N1CCCC1	inconclusive: 20.6 µM [falling, single point]	–	–
COc1ccc([C@@H]2[C@@H]3C(=O)N(C(C)(C)C)C(=O)[C@@H]3[C@]3(CC(C)C)C(=O)N(c4cccc(F)c4)C(=O)N23)cc1	–	inconclusive: -8.16%	–
CCOC(=O)C(C)Sc1nnc(Cc2cc(=O)[nH]c(=O)[nH]2)n1-c1cccc(OC)c1 (stereo not drawn)	–	inconclusive: -48.3%	–
O=C(CSc1nnc(Cc2cc(=O)[nH]c(=O)[nH]2)n1-c1ccc(F)cc1)NC1CCCC1	–	inconclusive: -32.3%	–
COc1ccc(CNC(=O)COc2cc(O)c3c(c2)OC(C)(C)CC3=O)cc1	–	inconclusive: 37.8%	–
O=C(C1CCCO1)N1CCc2ccccc21 (stereo not drawn)	–	inconclusive: 9.8%	–
COc1ccc(Cc2n[nH]c(=S)n2NC(=O)Nc2ccc(C)cc2)cc1	–	inconclusive: -6.93%	–
Cc1cc(C)n2c(SCC#N)nnc2n1	–	–	inactive [at 46.1 µM]
Cc1ccc(C)c(S(=O)(=O)N2CCCC2CNC(=O)C(=O)NCCN2CCOCC2)c1 (stereo not drawn)	–	inconclusive	–
COc1ccccc1N1CCN(C(=O)c2ccc(S(=O)(=O)N3CCCC3)cc2)CC1	–	inconclusive: 40.1%	–
O=C(NC(=S)NNS(=O)(=O)c1ccccc1)c1ccc([N+](=O)[O-])cc1	inconclusive: 0.411 µM [falling, full curve, poor fit]	–	–
Cc1ccc(NC(=O)Cc2nnc(SCC(=O)NC3CCCC3)n2C)c(C)c1	–	inconclusive: -40.1%	–
O=C(CCC(=O)Nc1ccc(Cl)cc1Cl)NNC(=O)Nc1ccccc1	–	inconclusive: -89.4%	–
COC(=O)c1ccccc1-c1ccc(/C=C2\C(=O)N(c3ccccc3)N=C2c2ccccc2)o1	–	inconclusive: -3.59%	–
CCn1c(COC(=O)CNC(=O)c2cc(OC)c(OC)c(OC)c2)nc2cc(S(=O)(=O)N(C)C)ccc21	–	inconclusive: 23%	–
COc1cccc(CNc2ccc3c(c2)ncn3C(C)C)c1OC	–	inconclusive: -11.4%	–
COc1cc2c(cc1NC(=O)Cc1ccc(C)cc1)oc1ccccc12	inconclusive: 29.1 µM [falling, single point]	–	–
